Among all 220,000 compounds or so, about 770 (0.35%) were called active. The inconclusive results got no clear call from the source; some entries with a clear call stand among them for comparison. No stated cut-off is given here; in the data, active means binding response below about 49% or above about 150%; inconclusive means no clear call, values can overlap the other calls; inactive means in between.
Target: Guanine nucleotide-binding protein G(o) subunit alpha (Homo sapiens) (UniProt P09471)
Test: RGS7-Galphao binding modulators, primary screen, biochemical, multiplexed bead flow cytometry (AID 1439);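 further: fluorescent Galphao held in activated GDP-AlF4 state binding bead-coupled RGS7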
Details: at 10 µM, actives lie on both sides

Chains of the proteins cited; added tags and fusions are not shown.
UniProt P09471, whole entry, looked up: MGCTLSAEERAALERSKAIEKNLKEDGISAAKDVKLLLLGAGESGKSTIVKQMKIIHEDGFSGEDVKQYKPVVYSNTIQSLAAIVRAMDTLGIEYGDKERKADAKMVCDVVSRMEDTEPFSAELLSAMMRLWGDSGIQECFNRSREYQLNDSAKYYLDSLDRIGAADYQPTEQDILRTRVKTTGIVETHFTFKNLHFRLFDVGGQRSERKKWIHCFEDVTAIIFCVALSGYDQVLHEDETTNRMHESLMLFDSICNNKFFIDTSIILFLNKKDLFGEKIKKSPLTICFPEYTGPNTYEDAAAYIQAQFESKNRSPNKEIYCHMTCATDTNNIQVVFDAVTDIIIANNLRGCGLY

Row | Structure (SMILES) | binding response (% of control)
1 | CCC(C)n1c(=S)[nH]c2ccccc2c1=O (stereo unspecified) | inconclusive: 93.8%
2 | N#CC(=C1N=c2ccccc2=N1)c1c(O)[nH]c2ccccc12 | inactive: 99.5%
3 | CCc1cc(C(=O)c2ccc(OC)cc2)c(N)s1 | inconclusive: 225%
4 | O=C(CN1C(=O)C(=O)N(Cc2ccccc2)C1=O)Nc1cc(Cl)cc(Cl)c1 | inconclusive: 85.8%
5 | CC(C)Nc1ccc(C(CC(N)=O)NC(=O)c2ccc(Br)cc2)cc1[N+](=O)[O-] (stereo unspecified) | inconclusive: 90.5%
6 | COc1ccc(-n2c(C)nn(CC3CC3)c2=O)cc1 | inconclusive: 90.7%
7 | O=C(COC(=O)c1cccnc1Cl)NCc1cccs1 | inconclusive: 105%
8 | C=Cc1ccc(CSc2cc(C)nc3nc(C)nn23)cc1 | inconclusive: 101%
9 | CCOC(=O)c1nn(-c2ccccc2)c(=O)cc1SC(C)CC (stereo unspecified) | inactive: 144%
10 | CC(C)(C)CC(=O)NCCc1csc(-c2ccccc2)n1 | inconclusive: 165%
11 | O=C(Nc1ccc(F)cc1)Nc1ccccc1C(=O)NCCN1CCNC1=O | inconclusive: 65.4%
12 | CCOC(=O)c1[nH]c(C=O)c(C(=O)OCC)c1C | inactive: 97.2%
13 | Cc1cccc(OC(=O)CCN2C(=O)C3C4C=CC(C5CC45)C3C2=O)c1C (stereo unspecified) | inactive: 98.9%
14 | CC(C)C[C@H](NC(=O)c1[nH]cnc1C(=O)Nc1ccc(Cl)cc1)C(=O)OC(C)(C)C | inconclusive: 91%
15 | O=C(N/N=C1\CCS(=O)(=O)c2ccc(F)cc21)c1ccc([N+](=O)[O-])cc1 | inconclusive: 112%
16 | CC(=O)c1ccc(N2CCN(C(=O)CCN3C(=S)NC(C)(C)CC3C)CC2)cc1 (stereo unspecified) | inconclusive: 103%
17 | CC1Cc2ccccc2N1CC(=O)Nc1ccc(S(=O)(=O)N(C)C)cc1 (stereo unspecified) | inconclusive: 109%
18 | CCOC(=O)Cc1cc(=O)c2cc(C)ccc2[nH]1 | inconclusive: 85.8%
19 | Cc1noc(C)c1S(=O)(=O)N1CCCC(C(=O)c2cccc(OC(C)C)c2)C1 (stereo unspecified) | inactive: 97%
20 | COc1ccc(COCC(O)CN2CCC(C(N)=O)CC2)cc1 (stereo unspecified) | inconclusive: 122%
21 | COc1ccccc1N1C(=O)C2C(c3ccc(F)cc3)NN(C(=O)c3ccc(C)cc3)C2C1=O (stereo unspecified) | inconclusive: 124%
22 | CC[N+](C)(C)CC/C=C1/c2ccccc2Sc2ccc(Cl)cc21 | inconclusive: 122%
23 | COc1ccccc1-c1noc(-c2cc(OC)c(OC)c(OC)c2)n1 | inactive: 103%

Row | Structure (SMILES) | binding response (% of control)
24 | CN1C(=O)C(CCC(=O)O)NC1=S (stereo unspecified) | inconclusive: 97.7%
25 | Cc1ccc(/C=C/C(=O)c2ccc(O)cc2)cc1 | inconclusive: 44.5%
26 | Cn1ccnc1SCC(=O)c1ccc2ccccc2c1 | inconclusive: 103%
27 | Cc1nc(NC(=O)c2ccccc2)sc1-c1csc(Nc2ccc(C(=O)O)cc2)n1 | inconclusive: 66.2%
28 | CCCCC(=O)NC(c1ccccc1OC)c1ccc2cccnc2c1O (stereo unspecified) | inconclusive: 75.7%
29 | COc1cc(/C=C/C(=O)NCCc2ccc(S(N)(=O)=O)cc2)ccc1OCC#N | inconclusive: 111%
30 | CC1CCCCN1C(=S)NC(=O)c1cccs1 (stereo unspecified) | inconclusive: 48.6%
31 | Cc1cc(=O)c(C(=O)O)nn1-c1ccc(Cl)cc1 | inconclusive: 108%
32 | Cc1cc(C)c2ccc(=S)[nH]c2n1 | inactive: 102%
33 | COc1ccc(C(CNC(=S)NCc2ccccc2)N2CCCC2)cc1 (stereo unspecified) | inconclusive: 109%
34 | N#C/C(=C\c1ccccc1[N+](=O)[O-])C(=O)Nc1ccc(S(N)(=O)=O)cc1 | inconclusive: 99.7%
35 | CCc1nnc(NS(=O)(=O)c2ccc(NC(=O)/C=C/c3ccccc3Cl)cc2)s1 | inconclusive: 81.4%
36 | CC(=O)Nc1ccc(N2CCN(C(=O)c3cccs3)CC2)cc1 | inactive: 132%
37 | O=C(c1ccccc1)N(CCO)Cc1cc2cc3c(cc2[nH]c1=O)OCCO3 | inconclusive: 107%
38 | O=C1NCCCC1C(=O)N/N=C/c1cccc([N+](=O)[O-])c1 (stereo unspecified) | inconclusive: -138%
39 | Fc1ccc(-c2csc(NC3=NCCC3)n2)cc1 | inconclusive: 108%
40 | CCC(C)[C@H]1CNC(=O)C(=O)N1CCCc1cc(OC)c(OC)c(OC)c1 (stereo partly specified) | inconclusive: 67.8%
41 | CN(C(=O)c1ccccc1OC1CCN(S(C)(=O)=O)CC1)C1CCOC1 (stereo unspecified) | inactive: 102%
42 | Cc1ccc2[nH]c(O)c(N=NC(N)=S)c2c1 | inconclusive: 97.1%
43 | N#CC(C(=O)OC1CCCCC1)c1nc2ccccc2nc1N1CCOCC1 (stereo unspecified) | active: 171% [activator]
44 | O=C(O)c1nccnc1C(=O)NCCc1c[nH]c2ccccc12 | inconclusive: 110%
45 | c1ccc(-c2ccc(C3=Nn4c(Cn5nnc6ccccc65)nnc4SC3)cc2)cc1 | inactive: 124%
46 | O=C(NCc1cccs1)c1cc(-c2ccc(O)cc2)on1 | inconclusive: 85.2%

Quoted at random: 3 entries already listed.
Row | Structure (SMILES) | binding response (% of control)
17 | CC1Cc2ccccc2N1CC(=O)Nc1ccc(S(=O)(=O)N(C)C)cc1 (stereo unspecified) | inconclusive: 109%
28 | CCCCC(=O)NC(c1ccccc1OC)c1ccc2cccnc2c1O (stereo unspecified) | inconclusive: 75.7%
29 | COc1cc(/C=C/C(=O)NCCc2ccc(S(N)(=O)=O)cc2)ccc1OCC#N | inconclusive: 111%

Source: PubChem BioAssay AID1439 (NMMLSC, 2008)
